Data published in patent US20080131434A1 (ONCOMED PHARMACEUTICALS, published 2008).
Results are given in words; binding and its absence hold for the method and conditions named. Some results given as binding are weak or reduced against the parent protein; the word gives no strength.

Protein sequences, listed by entry. Tags and fused reporters are not part of them. Residues count along the entry.
NOTCH1 (construct used in the assay not stated) (P46531, residues 19-220): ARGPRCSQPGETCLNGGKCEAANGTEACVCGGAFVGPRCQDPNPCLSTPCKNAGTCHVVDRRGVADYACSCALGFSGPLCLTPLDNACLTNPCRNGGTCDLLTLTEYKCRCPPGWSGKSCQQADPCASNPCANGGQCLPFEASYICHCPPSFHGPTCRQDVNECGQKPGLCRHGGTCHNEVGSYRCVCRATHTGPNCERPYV
NOTCH1 EGF 1-4 Fc fusion protein (P46531, residues 19-176): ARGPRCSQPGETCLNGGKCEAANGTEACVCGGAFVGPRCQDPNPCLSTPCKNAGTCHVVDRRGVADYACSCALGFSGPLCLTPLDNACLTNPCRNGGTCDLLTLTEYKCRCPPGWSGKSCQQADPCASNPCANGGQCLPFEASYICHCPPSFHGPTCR
NOTCH1 EGF 4-5 Fc fusion protein (P46531, residues 140-220): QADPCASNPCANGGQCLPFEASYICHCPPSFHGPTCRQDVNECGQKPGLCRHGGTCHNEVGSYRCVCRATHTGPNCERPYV

How the values were obtained:
[1] = target: NOTCH1 EGF 1-4 Fc fusion protein (human) (UniProt P46531); experiment: Western blot, SDS-PAGE of Fc fusion proteins
[2] = target: NOTCH1 EGF 4-5 Fc fusion protein (human) (UniProt P46531); experiment: Western blot, SDS-PAGE of Fc fusion proteins
[3] = target: NOTCH1 (construct used in the assay not stated) (human) (UniProt P46531); experiment: Western blot of NOTCH1 fragment Fc fusions, non-reducing SDS-PAGE

binding [1]: binds | binding [2]: binds | binding [3]: binds
B1: anti-NOTCH1 monoclonal antibody 13M57 (antibody, mouse IgG1, kappa, V domains shown)
VH: EVNLVESGGDLVQPGGSLRLSCAASGFTFSSYTMSWVRQTPEKRLEWVAYIDYGGDFTSYSDAIRGRFTISRDNAKNTLYLQMSSLKSEDTAIYYCSRRRYDAMDYWGQGTSVIVSS
VL: DIQMTQSTSSLSASLGDRVTVSCSASQAISNYLNWYQQKPDGTLKLLIYYTTNLHSGVPSRFSGSGSGTDYSLTISNLEPEDIATYYCQQYSKFPWTFGGGTKLEIKR
notes: Murine hybridoma antibody raised against NOTCH1 EGF repeats 1-5; Conjugated to Alexa Fluor 647 for some FACS work; also called 13M30
